Results deposited as PubChem BioAssay AID1259308 (NCATS, 2017).
The whole screen tested about 59,000 reagents; shown is a random part of them. Over the whole deposit, about 1,510 (2.6%) are marked active. 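Calls use total luciferase alone and ignore viability, so some active siRNAs may act by altering cell number.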 Unmarked entries are inactive. Reagents against one gene are numbered here. Not all columns of the deposit are shown. Reagent sequences are not shown.

Assay: 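Knock-downs that increase output of a recombinant reporter protein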 (primary screen)
Cell system: human HEK293 embryonic kidney cells stably expressing firefly luciferase (HEK-CMV-Luc2-Hygro)
Reagent: single siRNA against human genes, 0.8 pmol siRNA per well
Time to read-out: 72 h
Measured: 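Reporter luminescence and viable-cell signal on separate replicate plates, given as percent of non-targeting control and median/MAD z-scores, plus per-cell luciferase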
Reading the numbers: total luciferase, z-score and total luciferase, % of control: higher = more reporter protein produced
Active means: 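An siRNA counts as active if its total luciferase robust z-score exceeds 3; genes with two or more such siRNAs out of three were retested with fresh siRNAs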
Calls: active = raised luciferase; inactive = no rise

CCDC185 (coiled-coil domain containing 185) #1 — total luciferase, z-score: -0.934; total luciferase, % of control: 63.3
CCDC185 (coiled-coil domain containing 185) #2 — total luciferase, z-score: -1.23; total luciferase, % of control: 57.5
CCDC185 (coiled-coil domain containing 185) #3 — total luciferase, z-score: -0.787; total luciferase, % of control: 66.2
SERTAD2 (SERTA domain containing 2) #1 — total luciferase, z-score: -0.13; total luciferase, % of control: 79.3
SERTAD2 (SERTA domain containing 2) #2 — total luciferase, z-score: -0.652; total luciferase, % of control: 68.9
SERTAD2 (SERTA domain containing 2) #3 — total luciferase, z-score: 0.353; total luciferase, % of control: 88.9
EIF1B (eukaryotic translation initiation factor 1B) #1 — total luciferase, z-score: -0.75; total luciferase, % of control: 67
EIF1B (eukaryotic translation initiation factor 1B) #2 — total luciferase, z-score: 0.853; total luciferase, % of control: 98.9
EIF1B (eukaryotic translation initiation factor 1B) #3 — total luciferase, z-score: 0.235; total luciferase, % of control: 86.6
TRIM28 (tripartite motif containing 28) #1 — total luciferase, z-score: 2.09; total luciferase, % of control: 123
TRIM28 (tripartite motif containing 28) #2 — total luciferase, z-score: -0.418; total luciferase, % of control: 73.6
TRIM28 (tripartite motif containing 28) #3 — total luciferase, z-score: -0.344; total luciferase, % of control: 75
CHST14 (carbohydrate sulfotransferase 14) #1 — total luciferase, z-score: 0.842; total luciferase, % of control: 98.6
CHST14 (carbohydrate sulfotransferase 14) #2 — total luciferase, z-score: 0.238; total luciferase, % of control: 86.6
CHST14 (carbohydrate sulfotransferase 14) #3 — total luciferase, z-score: -0.499; total luciferase, % of control: 72
RBP3 (retinol binding protein 3) #1 — total luciferase, z-score: 0.507; total luciferase, % of control: 92
RBP3 (retinol binding protein 3) #2 — total luciferase, z-score: -1.77; total luciferase, % of control: 46.7
RBP3 (retinol binding protein 3) #3 — total luciferase, z-score: -0.992; total luciferase, % of control: 62.2
INSYN2A (inhibitory synaptic factor 2A) #1 — total luciferase, z-score: 0.68; total luciferase, % of control: 95.4
INSYN2A (inhibitory synaptic factor 2A) #2 — total luciferase, z-score: -0.11; total luciferase, % of control: 79.7
INSYN2A (inhibitory synaptic factor 2A) #3 — total luciferase, z-score: -0.156; total luciferase, % of control: 78.8
PCDHA5 (protocadherin alpha 5) #1 — total luciferase, z-score: 0.606; total luciferase, % of control: 93.9
PCDHA5 (protocadherin alpha 5) #2 — total luciferase, z-score: 0.00959; total luciferase, % of control: 82.1
PCDHA5 (protocadherin alpha 5) #3 — total luciferase, z-score: -0.832; total luciferase, % of control: 65.3
ITGB7 (integrin subunit beta 7) #1 — total luciferase, z-score: 1.8; total luciferase, % of control: 118
ITGB7 (integrin subunit beta 7) #2 — total luciferase, z-score: 0.17; total luciferase, % of control: 85.3
ITGB7 (integrin subunit beta 7) #3 — total luciferase, z-score: 0.54; total luciferase, % of control: 92.6
OR52I2 (olfactory receptor family 52 subfamily I member 2) #1 — total luciferase, z-score: -2.61; total luciferase, % of control: 30
OR52I2 (olfactory receptor family 52 subfamily I member 2) #2 — total luciferase, z-score: 2.31; total luciferase, % of control: 128
OR52I2 (olfactory receptor family 52 subfamily I member 2) #3 — total luciferase, z-score: -0.598; total luciferase, % of control: 70
PRSS38 (serine protease 38) #1 — total luciferase, z-score: -0.998; total luciferase, % of control: 62
PRSS38 (serine protease 38) #2 — total luciferase, z-score: 0.752; total luciferase, % of control: 96.8
PRSS38 (serine protease 38) #3 — total luciferase, z-score: -0.676; total luciferase, % of control: 68.4

Only “total luciferase, z-score” (4 entries from above):
OR52I2 (olfactory receptor family 52 subfamily I member 2) #2	2.31
OR52I2 (olfactory receptor family 52 subfamily I member 2) #3	-0.598
PRSS38 (serine protease 38) #1	-0.998
PRSS38 (serine protease 38) #2	0.752
